Binding data for two molecules are collected here from paper PMC9468337.

Protein sequences, listed by entry. Tags and fused reporters are not part of them. Lines headed by an entry give the natural chain unless they say otherwise; changes in a name come on top.
UniProt Q14703: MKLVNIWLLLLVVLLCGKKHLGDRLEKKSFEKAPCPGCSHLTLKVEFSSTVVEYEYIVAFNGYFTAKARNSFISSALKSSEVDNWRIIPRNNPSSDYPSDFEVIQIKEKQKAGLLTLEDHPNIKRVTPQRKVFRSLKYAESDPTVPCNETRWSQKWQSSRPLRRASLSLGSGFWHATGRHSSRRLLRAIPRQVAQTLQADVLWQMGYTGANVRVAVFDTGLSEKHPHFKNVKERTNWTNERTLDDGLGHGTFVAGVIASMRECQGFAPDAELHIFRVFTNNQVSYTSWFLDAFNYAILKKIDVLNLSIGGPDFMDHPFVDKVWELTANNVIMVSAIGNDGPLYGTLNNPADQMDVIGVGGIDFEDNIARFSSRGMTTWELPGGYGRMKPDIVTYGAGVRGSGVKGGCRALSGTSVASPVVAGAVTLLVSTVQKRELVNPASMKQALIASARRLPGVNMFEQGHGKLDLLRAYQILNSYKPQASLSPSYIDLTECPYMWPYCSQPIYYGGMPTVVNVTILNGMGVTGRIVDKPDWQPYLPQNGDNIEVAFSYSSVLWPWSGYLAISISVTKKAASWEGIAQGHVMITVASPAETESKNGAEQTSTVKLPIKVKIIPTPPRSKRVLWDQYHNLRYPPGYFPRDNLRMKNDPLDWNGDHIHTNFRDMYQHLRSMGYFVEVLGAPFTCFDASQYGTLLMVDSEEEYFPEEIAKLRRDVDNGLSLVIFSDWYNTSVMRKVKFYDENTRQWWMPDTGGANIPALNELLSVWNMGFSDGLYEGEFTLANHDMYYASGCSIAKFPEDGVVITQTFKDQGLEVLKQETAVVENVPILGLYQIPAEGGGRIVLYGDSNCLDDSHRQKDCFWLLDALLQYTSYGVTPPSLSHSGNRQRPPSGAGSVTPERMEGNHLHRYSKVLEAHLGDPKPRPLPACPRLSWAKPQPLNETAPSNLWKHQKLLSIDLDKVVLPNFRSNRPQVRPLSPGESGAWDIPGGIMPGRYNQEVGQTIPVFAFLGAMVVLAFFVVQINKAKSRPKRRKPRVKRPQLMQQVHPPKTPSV

These are yes or no findings as the source states them, for the method shown. Binding seen in cells or lysates may run through a third protein. Binding calls can cover weak binding; strength is not graded here.

For assay [1], the target named is T1, TMEM251 (GNPTAB cleavage and activity factor), short isoform (human) (UniProt Q8N6I4).
T1 sequence: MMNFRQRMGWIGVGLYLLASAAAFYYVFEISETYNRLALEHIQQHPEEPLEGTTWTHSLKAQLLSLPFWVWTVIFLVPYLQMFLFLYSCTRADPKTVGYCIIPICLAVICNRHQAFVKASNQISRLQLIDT
In words: co-IP; reciprocal IP 48 h after transfection; lysis in 20 mM Tris pH 8.0, 150 mM NaCl, 1% Triton; anti-FLAG M2, anti-V5 or anti-HA beads at 4 °C; washed 4 times with lysis buffer; western blot.

In assay [2] the target is site-1 protease S1P (S414A) (UniProt Q14703). The assay is described as above.

Consider “site-1 protease S1P (S414A) (from UniProt Q14703) (enzyme)”, for which the binding result in assay [1] is given as “binds”.

B1: TMEM251 (GNPTAB cleavage and activity factor), short isoform (protein, UniProt Q8N6I4-2 1-131)
chain: MMNFRQRMGWIGVGLYLLASAAAFYYVFEISETYNRLALEHIQQHPEEPLEGTTWTHSLKAQLLSLPFWVWTVIFLVPYLQMFLFLYSCTRADPKTVGYCIIPICLAVICNRHQAFVKASNQISRLQLIDT
Regarding B1, in assay [2], the binding result is listed as “binds”.
